# Results from the supplement of paper PMC12297408.
# Counter-ions that a name gives are not always drawn. Most of the hits are listed elsewhere, so they are rarer here than in the full data.
# System: Plasmodium falciparum NF54/iGP1_RE9H ulg8 stage V gametocytes
# Assay: gametocyte viability (luciferase signal relative to DMSO control) (% of DMSO control); higher = less gametocytocidal activity, active = 50 or less
# Conditions: exposure time: 72 h
# Procedure, shortened: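 In 96-well plates holding nanolitre spots of compound (10 mM DMSO stocks), NF54/iGP1_RE9Hulg8 stage V gametocytes from day 12 were added at ~2.5% gametocytemia and 3% hematocrit in medium with 0.5% Albumax II, giving single wells at 10 µM or 1 µM. Incubation lasted 72 h at 37 °C. Each 90 µl sample then received 10 µl D-luciferin (30 mg/ml) before luminescence reading on an IVIS Lumina II, and viability was normalized to the mean of DMSO vehicle wells on the same plate.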
compound,measurement,setting,value
"CN1[C@@H]2CC[C@H]1C[C@@H](OC(=O)C(O)c1ccccc1)C2 (mixture of isomers) [Homatropine hydrobromide (R,S)]",gametocyte viability,concentration: 1 µM,inactive: 97.3
same,gametocyte viability,concentration: 10 µM,inactive: 104
